From PMC7024302, “Ultrashort Cationic Lipopeptides–Effect of N-Terminal Amino Acid and Fatty Acid Type on Antimicrobial Activity and Hemolysis” (Molecules, 2020)
Residues, ends and D or L forms follow the SMILES beside them. *: point of attachment. Myristoyl = CCCCCCCCCCCCCC(=O)*; Acm = CC(=O)NC*

Legend:
K. aerogenes ATCC 13048 = type: cell-based, Klebsiella aerogenes; details: SI = HC50/MIC
From the text: (§1) The Acinetobacter baumannii ATCC BAA-1605, Candida albicans ATCC 10231, Enterococcus faecium ATCC 700221, Klebsiella aerogenes ATCC 13048 (previously known as Enterobacter aerogenes), Klebsiella pneumoniae ATCC 700603, Pseudomonas aeruginosa ATCC 9027, Staphylococcus aureus ATCC 25923 and MRSA ATCC 33591, were acquired from the American Type Culture Collection (ATCC). Before running the tests, beads with cryo-protected microorganisms were transferred into fresh MHB (BioMaxima, Lublin, Poland) for bacteria or RPMI-1640 for fungi and incubated for 24 h at 37 °C. Then, the culture was seeded on the Mueller-Hinton agar (MHA) plates (BioMaxima, Lublin, Poland) for bacteria or Sabouraud dextrose agar (SDA) plates (BioMaxima, Lublin, Poland) for fungi and incubated as just mentioned. Cell densities for all assays were adjusted spectrophotometrically (Multiskan™ GO Microplate Spectrophotometer, Thermo Fisher Scientific, Vantaa, Finland) at 600 nm for bacteria and at 530 nm for fungi.
(§2) The MICs were determined by broth microdilution method according to the Clinical and Laboratory Standard Institute guidelines. For this purpose initial inoculums of bacteria (5 × 10^5 CFU/mL) in MHB (BioMaxima, Lublin, Poland) and fungi (2 × 10^3 CFU/mL) in RPMI-1640 with 2% D-glucose (Merck, Darmstadt, Germany) prepared with MOPS (pH 7.0 ± 0.1 at 25 °C; Merck, Darmstadt, Germany) were exposed to the ranging concentration of lipopeptides (0.5–256 µg/mL) and incubated at 37 °C for 18 h and 24 h respectively. The experiments were conducted on 96-well microtiter polystyrene plates (Kartell, Italy). The MIC was taken as the lowest peptide concentration at which a noticeable growth of microorganisms was inhibited. All experiments were conducted in triplicate.

E. faecium ATCC 700221 = type: cell-based, Enterococcus faecium; details: SI = HC50/MIC
From the text: as §1, §2

Compound: CCCCCCCCCCCCCC(=O)N[C@@H](CCCNC(=N)N)C(=O)N[C@@H](CCCNC(=N)N)C(N)=O [compound 4, C14-RR-NH2, reference compound] (HELM PEPTIDE1{[CCCCCCCCCCCCCC(=O)[*:2]].R.R.[am]}$$$$V2.0)
- SI (E2) (K. aerogenes ATCC 13048): 0.27
- SI (E1) (E. faecium ATCC 700221): 8.55

Compound: CCCCCCCCCCCCCC(=O)N[C@@H](Cc1ccc(O)cc1)C(=O)N[C@@H](CCCNC(=N)N)C(=O)N[C@@H](CCCNC(=N)N)C(N)=O [compound 102, C14-YRR-NH2] (HELM PEPTIDE1{[CCCCCCCCCCCCCC(=O)[*:2]].Y.R.R.[am]}$$$$V2.0)
- SI (E2) (K. aerogenes ATCC 13048): 0.73
- SI (E1) (E. faecium ATCC 700221): 11.63

Compound: CCCCCCCCCCCCCCCC(=O)N[C@@H](CCCNC(=N)N)C(=O)N[C@@H](CCCNC(=N)N)C(N)=O [compound 5, C16-RR-NH2, reference compound] (HELM PEPTIDE1{[CCCCCCCCCCCCCCCC(=O)[*:2]].R.R.[am]}$$$$V2.0)
- SI (E2) (K. aerogenes ATCC 13048): 0.72
- SI (E1) (E. faecium ATCC 700221): 2.86

Compound: CCCCCCCCCCCC(=O)N[C@@H](CC(C)C)C(=O)N[C@@H](CCCNC(=N)N)C(=O)N[C@@H](CCCNC(=N)N)C(N)=O [compound 45, C12-LRR-NH2] (HELM PEPTIDE1{[CCCCCCCCCCCC(=O)[*:2]].L.R.R.[am]}$$$$V2.0)
- SI (E2) (K. aerogenes ATCC 13048): 0.44
- SI (E1) (E. faecium ATCC 700221): 7.05

Compound: CCCCCCCCCCCCCCCCCC(=O)N[C@@H](CCCNC(=N)N)C(=O)N[C@@H](CCCNC(=N)N)C(N)=O [compound 6, C18-RR-NH2, reference compound] (HELM PEPTIDE1{[CCCCCCCCCCCCCCCCCC(=O)[*:2]].R.R.[am]}$$$$V2.0)
- SI (E2) (K. aerogenes ATCC 13048): 1.57
- SI (E1) (E. faecium ATCC 700221): 3.15

Compound: CCCCCCCCCCCC(=O)N[C@@H](CCCC)C(=O)N[C@@H](CCCNC(=N)N)C(=O)N[C@@H](CCCNC(=N)N)C(N)=O [compound 65, C12-NleRR-NH2] (HELM PEPTIDE1{[CCCCCCCCCCCC(=O)[*:2]].[Nle].R.R.[am]}$$$$V2.0)
- SI (E2) (K. aerogenes ATCC 13048): > 1
- SI (E1) (E. faecium ATCC 700221): > 32

Compound: CCCCCCCCCCCCCC(=O)N[C@@H](Cc1ccccc1)C(=O)N[C@@H](CCCNC(=N)N)C(=O)N[C@@H](CCCNC(=N)N)C(N)=O [compound 26, C14-FRR-NH2] (HELM PEPTIDE1{[CCCCCCCCCCCCCC(=O)[*:2]].F.R.R.[am]}$$$$V2.0)
- SI (E2) (K. aerogenes ATCC 13048): 0.61
- SI (E1) (E. faecium ATCC 700221): 2.44

Compound: CCCCCCCCCCCC(=O)N[C@H](C(=O)N[C@@H](CCCNC(=N)N)C(=O)N[C@@H](CCCNC(=N)N)C(N)=O)[C@@H](C)CC [compound 37, C12-IRR-NH2] (HELM PEPTIDE1{[CCCCCCCCCCCC(=O)[*:2]].I.R.R.[am]}$$$$V2.0)
- SI (E2) (K. aerogenes ATCC 13048): 0.47
- SI (E1) (E. faecium ATCC 700221): 15.05

Compound: CCCCCCCCCCCC(=O)N[C@@H](CCSC)C(=O)N[C@@H](CCCNC(=N)N)C(=O)N[C@@H](CCCNC(=N)N)C(N)=O [compound 49, C12-MRR-NH2] (HELM PEPTIDE1{[CCCCCCCCCCCC(=O)[*:2]].M.R.R.[am]}$$$$V2.0)
- SI (E2) (K. aerogenes ATCC 13048): 0.81
- SI (E1) (E. faecium ATCC 700221): 12.91

Compound: CCCCCCCCCCCCCC(=O)N[C@H](C(=O)N[C@@H](CCCNC(=N)N)C(=O)N[C@@H](CCCNC(=N)N)C(N)=O)C(C)C [compound 94, C14-VRR-NH2] (HELM PEPTIDE1{[CCCCCCCCCCCCCC(=O)[*:2]].V.R.R.[am]}$$$$V2.0)
- SI (E2) (K. aerogenes ATCC 13048): 0.24
- SI (E1) (E. faecium ATCC 700221): 1.92

Compound: CCCCCCCCCCCCCC(=O)N[C@H](C(=O)N[C@@H](CCCNC(=N)N)C(=O)N[C@@H](CCCNC(=N)N)C(N)=O)[C@@H](C)O [compound 90, C14-TRR-NH2] (HELM PEPTIDE1{[CCCCCCCCCCCCCC(=O)[*:2]].T.R.R.[am]}$$$$V2.0)
- SI (E2) (K. aerogenes ATCC 13048): 0.34
- SI (E1) (E. faecium ATCC 700221): 5.43

Compound: CCCCCCCCCCCCCC(=O)N[C@@H](CSCNC(C)=O)C(=O)N[C@@H](CCCNC(=N)N)C(=O)N[C@@H](CCCNC(=N)N)C(N)=O [compound 14, C14-C(Acm)RR-NH2] (Myristoyl-Cys(Acm)-Arg-Arg-NH2)
- SI (E2) (K. aerogenes ATCC 13048): 0.16
- SI (E1) (E. faecium ATCC 700221): 4.97
